Data published in PubChem BioAssay AID248 (DTP/NCI, 2004).
The list shows only some results of the screen, not a fair sample: it gathers tests that were run many times, whatever their T/C, doses with no T/C, and many T/C values between a quarter and a half above the control. Further doses and runs are listed elsewhere. T/C gives the treated animals as a percentage of the vehicle group. Some doses have a count of surviving animals in place of a T/C: the source files T/C as zero there, which appears to mark a toxic dose or a test without result, not a measured value. Some doses without a T/C left all or most animals alive at the check, yet need not have been tolerated: survival well below the control is almost never listed, so the zero probably covers shortened survival too. Survivors were counted at the toxicity check, usually on the fifth day, unless a day is given; later deaths do not show. Schedules are NCI's codes, taken here to give the interval after Q, in days (D) or hours (H), and the number of doses after X. Some schedules carry Z or #; the key to these is not given. For survival time, the PubChem record calls one and a half times the control and up active, and a quarter to a half above the control has no call in these data; cut-offs in other NCI protocols can differ. Some entries were tested several times; the values are given in rising order.

System: L1210 leukemia ip in BDF1 mice, survival T/C
Experiment: NCI In Vivo Anticancer Drug Screen. Data for tumor model L1210 Leukemia (intraperitoneal) in B6D2F1 (BDF1) mice
Conditions: T/C endpoint: mean survival time, higher T/C = longer survival
[1] = dose: 400.0 mg/kg/injection, schedule: Q04DX003 (ip), vehicle: saline
[2] = dose: 400.0 mg/kg/injection, schedule: Q01DX009 (ip), vehicle: saline
[3] = dose: 400.0 mg/kg/injection, schedule: Q04DX003 (ip), vehicle: Klucel (hydroxypropylcellulose) (HPC)
[4] = dose: 400.0 mg/kg/injection, schedule: Q01DX009 (ip), vehicle: saline with Tween-80
[5] = dose: 200.0 mg/kg/injection, schedule: Q01DX001 (ip), vehicle: saline
[6] = dose: 400.0 mg/kg/injection, schedule: Q01DX001 (ip), vehicle: saline
[7] = dose: 400.0 mg/kg/injection, schedule: Q04DX003 (ip), vehicle: saline with Tween-80

O=C1C=Cc2ccc(O)cc2C1=O
survivor count (dose: 10.0 mg/kg/injection, schedule: Q01DX Z (ip), vehicle: saline): 2 of 6 | survivor count (dose: 15.0 mg/kg/injection, schedule: Q01DX Z (ip), vehicle: saline): 0 of 6 | survivor count (dose: 20.0 mg/kg/injection, schedule: Q01DX001 (ip), vehicle: acetone): 2 of 6 | survivor count (dose: 22.0 mg/kg/injection, schedule: Q01DX Z (ip), vehicle: saline): 0 of 6 | survivor count (dose: 40.0 mg/kg/injection, schedule: Q01DX001 (ip), vehicle: acetone): 0 of 6 | survivor count (dose: 75.0 mg/kg/injection, schedule: Q01DX001 (ip), vehicle: acetone): 0 of 6 | survivor count (dose: 150.0 mg/kg/injection, schedule: Q01DX001 (ip), vehicle: acetone): 0 of 6 | survivor count (dose: 300.0 mg/kg/injection, schedule: Q01DX001 (ip), vehicle: acetone): 0 of 6

S=C([S-])N1CCN(c2ccccc2)CC1.S=C([S-])N1CCN(c2ccccc2)CC1.[Zn]
survivor count (dose: 100.0 mg/kg/injection, schedule: Q04DX003 (ip), vehicle: saline): 6 of 6 | survivor count [1]: 1 of 6

O/N=C\c1cc[n+](CC[n+]2ccc(/C=N/O)cc2)cc1
survivor count (dose: 200.0 mg/kg/injection, schedule: Q04DX002 (ip), vehicle: other): 0 of 3 | survivor count (dose: 400.0 mg/kg/injection, schedule: Q04DX002 (ip), vehicle: other): 1 of 3

COc1cc(NS(C)(=O)=O)ccc1N
survivor count [2]: 1 of 6

CCCCCCCCCCCCSC(=O)CCC(=O)O
survivor count [3]: 1 of 6

Oc1cccc2cccnc12
survivor count (dose: 200.0 mg/kg/injection, schedule: Q01DX001 (ip), vehicle: carboxymethylcellulose (CMC)): 2 of 4

CC(C)(C)NC1CCCC1Cl (stereo not drawn)
survivor count [4]: 0 of 6

CC1(/C=N\NC(N)=O)CC2C=CC1C2 (stereo not drawn)
survivor count [3]: 3 of 6

O=[N+]([O-])c1cc(C(F)(F)F)cc([N+](=O)[O-])c1Cl
T/C (dose: 6.25 mg/kg/injection, schedule: Q01DX001 (ip), vehicle: Klucel (hydroxypropylcellulose) (HPC)): 125 % of control | survivor count (dose: 100.0 mg/kg/injection, schedule: Q01DX001 (ip), vehicle: Klucel (hydroxypropylcellulose) (HPC)): 0 of 3 | survivor count (dose: 200.0 mg/kg/injection, schedule: Q01DX001 (ip), vehicle: Klucel (hydroxypropylcellulose) (HPC)): 1 of 3 | survivor count (dose: 400.0 mg/kg/injection, schedule: Q01DX001 (ip), vehicle: Klucel (hydroxypropylcellulose) (HPC)): 0 of 3

C/C(=N/N(C)C)c1cccc(C(F)(F)F)c1
survivor count [1]: 0 of 6

CC(C)(NC(=O)NCCCl)c1ccccc1
survivor count [5]: 3 of 6 | survivor count [6]: 0 of 6

NC(=O)N(CCCCN(N=O)C(N)=O)N=O
T/C (dose: 26.0 mg/kg/injection, schedule: Q01DX001 (ip), vehicle: saline with Tween-80): 140 % of control | survivor count (dose: 187.0 mg/kg/injection, schedule: Q01DX001 (ip), vehicle: saline with Tween-80): 9 of 10 | survivor count (dose: 250.0 mg/kg/injection, schedule: Q01DX001 (ip), vehicle: saline with Tween-80): 10 of 10 | survivor count (dose: 375.0 mg/kg/injection, schedule: Q01DX001 (ip), vehicle: saline with Tween-80): 10 of 10

NCCc1cc2c3c(c1)CCCN3CCC2
survivor count (dose: 12.5 mg/kg/injection, schedule: Q01DX009 (ip), vehicle: saline): 3 of 6 | survivor count (dose: 25.0 mg/kg/injection, schedule: Q01DX009 (ip), vehicle: saline): 0 of 6 | survivor count (dose: 50.0 mg/kg/injection, schedule: Q01DX001 (ip), vehicle: saline): 2 of 6 | survivor count (dose: 100.0 mg/kg/injection, schedule: Q01DX001 (ip), vehicle: saline): 0 of 6 | survivor count [5]: 0 of 6 | survivor count [6]: 0 of 6

NC(=O)C1C=CCC1 (stereo not drawn)
survivor count (dose: 100.0 mg/kg/injection, schedule: Q04DX002 (ip), vehicle: saline with Tween-80): 2 of 3 | survivor count (dose: 200.0 mg/kg/injection, schedule: Q04DX002 (ip), vehicle: saline with Tween-80): 0 of 3 | survivor count (dose: 400.0 mg/kg/injection, schedule: Q04DX002 (ip), vehicle: saline with Tween-80): 0 of 3

CN(C)/N=N/c1nc[nH]c1C(=O)NCCc1ccccc1
survivor count (dose: 400.0 mg/kg/injection, schedule: Q01DX001 (ip), vehicle: other): 0 of 6

Cc1cc2cccc[n+]2cc1C
survivor count (dose: 50.0 mg/kg/injection, schedule: Q01DX009 (ip), vehicle: saline): 3 of 6 | survivor count (dose: 100.0 mg/kg/injection, schedule: Q01DX009 (ip), vehicle: saline): 0 of 6 | survivor count (dose: 200.0 mg/kg/injection, schedule: Q01DX009 (ip), vehicle: saline): 0 of 6 | survivor count [2]: 0 of 6

Nc1n[nH]c(=O)[nH]1
T/C (dose: 150.0 mg/kg/injection, schedule: Q03HX024 (ip), vehicle: saline): 139 % of control | T/C (dose: 178.0 mg/kg/injection, schedule: Q01DX009 (ip), vehicle: saline): 133 % of control | T/C (dose: 266.0 mg/kg/injection, schedule: Q01DX009 (ip), vehicle: saline): 147 % of control | T/C [2]: 144 and 146 % of control

CC1(C)CC(N)CC(C)(C)N1O
survivor count [1]: 0 of 4

O=C(Nc1ccc([N+](=O)[O-])cc1Cl)OCCCl
survivor count (dose: 100.0 mg/kg/injection, schedule: Q01DX009 (ip), vehicle: saline with Tween-80): 3 of 3 | survivor count [4]: 6 of 6 | survivor count [7]: 6 of 6

COc1cccn(C/C=C(\C)CCC=C(C)C)c1=O
survivor count (dose: 100.0 mg/kg/injection, schedule: Q04DX003 (ip), vehicle: saline with Tween-80): 2 of 6 | survivor count (dose: 200.0 mg/kg/injection, schedule: Q04DX003 (ip), vehicle: saline with Tween-80): 3 of 6 | survivor count [7]: 1 of 6
